The target in data set [1] is human serum albumin (HSA) (human) (UniProt P02768). The data set can be described thus: RCA inhibition fluorescence assay. The note with it: 10 fg/mL protein, signal comparable to blank, aptamer/padlock annealed in water with 80 mM NaCl (2 uL of 800 mM in 20 uL), then 40 uL protein added, 30 min, pH and binding temperature not stated, ligation 37 C 1 h, commercial protein.

Sequences of proteins named here, by UniProt entry; tags and fusion partners are left off. Residues count along the entry.
UniProt P02787, 20-698: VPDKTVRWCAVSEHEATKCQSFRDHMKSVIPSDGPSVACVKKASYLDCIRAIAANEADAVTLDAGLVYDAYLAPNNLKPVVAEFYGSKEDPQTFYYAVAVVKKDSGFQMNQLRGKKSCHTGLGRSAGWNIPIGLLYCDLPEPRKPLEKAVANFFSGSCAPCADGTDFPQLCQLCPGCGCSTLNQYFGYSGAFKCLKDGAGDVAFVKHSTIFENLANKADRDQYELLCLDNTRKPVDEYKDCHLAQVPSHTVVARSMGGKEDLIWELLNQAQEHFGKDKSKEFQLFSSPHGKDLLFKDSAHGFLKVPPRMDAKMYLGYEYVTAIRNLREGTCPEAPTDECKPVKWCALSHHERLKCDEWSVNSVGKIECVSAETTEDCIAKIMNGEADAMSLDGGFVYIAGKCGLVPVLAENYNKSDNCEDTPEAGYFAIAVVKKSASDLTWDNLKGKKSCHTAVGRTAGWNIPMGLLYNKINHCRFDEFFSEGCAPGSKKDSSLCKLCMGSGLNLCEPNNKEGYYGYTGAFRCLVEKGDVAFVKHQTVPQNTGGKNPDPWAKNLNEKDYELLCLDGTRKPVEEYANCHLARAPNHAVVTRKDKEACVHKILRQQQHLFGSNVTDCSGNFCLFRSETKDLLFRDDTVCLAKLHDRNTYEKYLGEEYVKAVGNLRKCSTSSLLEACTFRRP
UniProt P01579, 24-161: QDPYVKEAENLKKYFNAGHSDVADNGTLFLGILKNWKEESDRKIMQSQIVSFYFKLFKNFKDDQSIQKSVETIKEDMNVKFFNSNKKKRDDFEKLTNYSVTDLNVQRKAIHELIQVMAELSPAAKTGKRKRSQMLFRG

Another data set deals with glypican 3 (GPC 3). Put plainly: RCA inhibition fluorescence assay. To be noted: 10 fg/mL protein, signal comparable to blank, aptamer/padlock annealed in water with 80 mM NaCl (2 uL of 800 mM in 20 uL), then 40 uL protein added, 30 min, pH and binding temperature not stated, ligation 37 C 1 h, commercial protein.
For another data set, the target named is transferrin (UniProt P02787). Put plainly: RCA inhibition fluorescence assay. The note with it: 10 fg/mL protein, signal comparable to blank, aptamer/padlock annealed in water with 80 mM NaCl (2 uL of 800 mM in 20 uL), then 40 uL protein added, 30 min, pH and binding temperature not stated, ligation 37 C 1 h, commercial protein.
The next data set deals with interferon-gamma (IFN-γ) (UniProt P01579). The data set can be described thus: RCA inhibition fluorescence assay. The note with it: 10 fg/mL protein, signal comparable to blank, aptamer/padlock annealed in water with 80 mM NaCl (2 uL of 800 mM in 20 uL), then 40 uL protein added, 30 min, pH and binding temperature not stated, ligation 37 C 1 h, commercial protein.
Another data set addresses PD-L1 (human) (UniProt Q9NZQ7). Put plainly: not stated (cited). The note with it: aptamer/padlock annealed in water with 80 mM NaCl (2 uL of 800 mM in 20 uL), then 40 uL protein added, 30 min; pH and binding temperature not stated; ligation 37 C 1 h; commercial protein; single-stranded DNA.
The next data set concerns Mucin 1 (human). Put plainly: inhibition of RCA by aptamer capture (agarose gel, QD fluorescence). To be noted: 10 ag/mL-100 fg/mL protein in gel; 5'-phosphate on Padlock-2; aptamer/padlock annealed in water with 80 mM NaCl (2 uL of 800 mM in 20 uL), then 40 uL protein added, 30 min; pH and binding temperature not stated; ligation 37 C 1 h; commercial protein.

For some of these results: Negatives hold for the conditions tested. For some of these results: At least one verdict was read from the data and is not stated in words by the source. For some of these results: Construct, isoform or probe ends are uncertain for at least one entry.

For “ACGGGCCACATCAACTCATTGATAGACAATGCGTCCACTGCCCGT / TGTCTATCAATGATATGGGGGGTCGCATGGGGGGTACAGATGGGGGGTCGCATGGGGGGCCTAACGGGCAGTGGACGCAT [PD-L1 aptamer + Padlock-1 (dsDNA-1)]”, the binding result (in data set [1] (5'-phosphate on Padlock-1); in the data set with glypican 3 (GPC 3) (5'-phosphate on Padlock-1); with transferrin (5'-phosphate on Padlock-1); in the data set with interferon-gamma (IFN-γ) (5'-phosphate on Padlock-1)) was “no binding” in each case.

“ACGGGCCACATCAACTCATTGATAGACAATGCGTCCACTGCCCGT [PD-L1 aptamer]” registered a Kd with PD-L1 (human) of 4.7 nM.

For the sequence “GCAGTTGATCCTTTGGATACCCTGGAGTGA / CCAAAGGATCCTAAAAAAATCGCATAAAAAATACAGCTAAAAAATCGCATAAAAAACCTATCACTCCAGGGTAT [Mucin 1 aptamer + Padlock-2 (dsDNA-2)]”, the binding result in the data set on Mucin 1 (human) is “binds”; in data set [1] (5'-phosphate on Padlock-2) it was “no binding”; with glypican 3 (GPC 3) (5'-phosphate on Padlock-2), “no binding”; with transferrin (5'-phosphate on Padlock-2), “no binding”; with interferon-gamma (IFN-γ) (5'-phosphate on Padlock-2), “no binding”.

One may read the Kd as the equilibrium constant for the complex coming apart.

For the origin of these results see paper PMC11348067.
